In paper PMC10844655:

Assays:
Test in all cases: EMSA
Pol II-IDR = details: Binding buffer 250 mM HEPES, 500 mM KCl, 20 mM MgSO4, on ice 30 min, G4 oligos annealed in 50 mM Tris-HCl, 50 mM KCl, 40% PEG200, recombinant protein, protein details: EGFP, His6, label: FAM
MAZ WT (human) = target: T1, MAZ WT (human) (UniProt P56270); details: Binding buffer 250 mM HEPES, 500 mM KCl, 20 mM MgSO4, on ice 30 min, G4 oligos annealed in 50 mM Tris-HCl, 50 mM KCl, 40% PEG200, recombinant protein, protein details: His6 (also mCherry-His6 fusion), label: FAM, folded or branched DNA
T1 sequence (looked up, limits assumed): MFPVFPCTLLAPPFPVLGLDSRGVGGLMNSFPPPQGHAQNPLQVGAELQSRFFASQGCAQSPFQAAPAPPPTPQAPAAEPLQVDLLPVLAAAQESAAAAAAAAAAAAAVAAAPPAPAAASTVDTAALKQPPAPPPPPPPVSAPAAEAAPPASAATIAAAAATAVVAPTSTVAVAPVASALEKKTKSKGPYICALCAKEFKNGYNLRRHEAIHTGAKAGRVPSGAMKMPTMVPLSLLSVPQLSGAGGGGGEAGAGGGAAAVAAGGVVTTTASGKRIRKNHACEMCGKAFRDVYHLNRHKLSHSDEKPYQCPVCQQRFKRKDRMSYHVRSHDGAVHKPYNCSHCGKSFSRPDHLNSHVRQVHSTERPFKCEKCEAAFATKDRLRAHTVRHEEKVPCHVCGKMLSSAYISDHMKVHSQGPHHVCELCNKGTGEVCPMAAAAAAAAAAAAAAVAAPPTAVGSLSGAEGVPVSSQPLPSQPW

MAZ ZF3M (human) = MAZ ZF3M (human) (UniProt P56270); details: Binding buffer 250 mM HEPES, 500 mM KCl, 20 mM MgSO4, on ice 30 min, G4 oligos annealed in 50 mM Tris-HCl, 50 mM KCl, 40% PEG200, recombinant protein, protein details: mCherry, His6, label: FAM, folded or branched DNA
MAZ ZF4M (human) = MAZ ZF4M (human) (UniProt P56270); details: Binding buffer 250 mM HEPES, 500 mM KCl, 20 mM MgSO4, on ice 30 min, G4 oligos annealed in 50 mM Tris-HCl, 50 mM KCl, 40% PEG200, recombinant protein, protein details: mCherry, His6, label: FAM, folded or branched DNA
MAZ ZF234M (human) = MAZ ZF234M (human) (UniProt P56270); details: Binding buffer 250 mM HEPES, 500 mM KCl, 20 mM MgSO4, on ice 30 min, G4 oligos annealed in 50 mM Tris-HCl, 50 mM KCl, 40% PEG200, recombinant protein, protein details: mCherry, His6, label: FAM, folded or branched DNA
MAZ ZF2M (human) = MAZ ZF2M (human) (UniProt P56270); details: Binding buffer 250 mM HEPES, 500 mM KCl, 20 mM MgSO4, on ice 30 min, G4 oligos annealed in 50 mM Tris-HCl, 50 mM KCl, 40% PEG200, recombinant protein, protein details: mCherry, His6, label: FAM, folded or branched DNA

Row | Sequence | binding result (MAZ ZF3M (human)) | binding result (MAZ ZF4M (human)) | binding result (MAZ ZF234M (human)) | binding result (MAZ ZF2M (human)) | further results
1 | ATGAGAGCGAGAGAGAGACGAGAGCGAGCGCAGAGAGAGAGAGCGCGAGCG [CCND1-G4 Mut1] |  |  |  |  | binding result (Pol II-IDR; single-stranded DNA): no binding
2 | ATGGGAGCGGGAGGGGGGCGGGGGCGGGCGCAGGGGGAGGGGGCGCGGGCG [CCND1-G4 WT] |  |  |  |  | binding result (MAZ WT (human); PDS): binds more weakly; binding result (MAZ WT (human); TMPyP4): binds more weakly; binding result (Pol II-IDR; folded or branched DNA): binds; binding result (MAZ ZF3M (human); largely retained): binds; binding result (MAZ ZF4M (human); largely retained): binds; binding result (MAZ ZF234M (human); virtually failed): no binding; binding result (MAZ ZF2M (human); virtually failed): no binding
3 | GGAGGAGGAGGAGGAGGAGGAGGA [MYB-G4] | binds | binds | no binding | no binding | 
4 | GGGCGCGGGAGGAATTGGGCGGG [BCL2-G4] | binds | binds | no binding | no binding | 
5 | GGGGCGCGGGGCGCGGGGCATGGGG [MDM2-G4] | binds | binds | no binding | no binding | 
6 | TAGGGTTAGGGTTAGGGTTAGGGTTAG [TEL-G4] | binds | binds | no binding | no binding | 
7 | TGAGGGTGGGTAGGGTGGGTAA [MYC-G4 (Table S2)] | binds | binds | no binding | no binding | 

Construct, isoform or probe ends are uncertain for at least one entry. For some of these results: A negative result means that nothing was seen under these conditions. For some of these results: At least one verdict rests on a figure or table, not on a statement of the authors. For some of these results: The comparison behind a weaker result is the experiment's own reference, which may not be listed here. For some of these results: Tags and fusion partners may be left off the protein sequences shown.
